{"source": "PubChem BioAssay AID1671195 (Yale University, 2021)", "test": "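Knockdowns that increase or decrease uptake of fluorescent LDL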 (primary screen)", "system": "human Huh7 hepatoma cells", "reagent": "siRNA pool against human genes, 18 nM", "time to read-out": "about 2 to 2.5 days of knockdown, then 8 h LDL uptake", "treatment": "DiI-labelled LDL at 30 µg/ml for 8 h, in lipoprotein-deficient serum medium", "measured": "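Fluorescent LDL signal imaged in cells, scaled to the plate median, robust z-score for each replicate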", "direction": "robust z-score: higher = more LDL uptake after knockdown", "rule for the call": "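Active when two or more replicates show a robust z-score above 2 or below -2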", "note": "This is one part, drawn at random, of about 22,000 deposited reagents. Of all reagents, about 1,510 (6.9%) got an active call. 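Active includes knockdowns raising or lowering LDL uptake; positive z-scores mean more uptake, negative mean less.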 Unmarked entries are inactive. No sequences are given here."}
{"gene": "TUT1", "robust z-score, replicate 1": 0.783, "robust z-score, replicate 2": 0.845, "robust z-score, replicate 3": 0.719}
{"gene": "LINC00608", "robust z-score, replicate 1": -1.23, "robust z-score, replicate 2": -1.22, "robust z-score, replicate 3": -1.65}
{"gene": "KLK2", "robust z-score, replicate 1": 0.112, "robust z-score, replicate 2": -0.154, "robust z-score, replicate 3": 0.133}
{"gene": "MAP10", "robust z-score, replicate 1": 0.252, "robust z-score, replicate 2": 1.56, "robust z-score, replicate 3": 1.55}
{"gene": "OR8J3", "robust z-score, replicate 1": -1.27, "robust z-score, replicate 2": -0.293, "robust z-score, replicate 3": -0.816}
{"gene": "SLC2A5", "robust z-score, replicate 1": -0.567, "robust z-score, replicate 2": -0.771, "robust z-score, replicate 3": -0.0418}
{"gene": "LOC441663 (retired record)", "robust z-score, replicate 1": -1.23, "robust z-score, replicate 2": -1.21, "robust z-score, replicate 3": -1.34}
{"gene": "ZNF468", "robust z-score, replicate 1": 0.6, "robust z-score, replicate 2": 0.384, "robust z-score, replicate 3": 0.405}
{"gene": "ELOC", "robust z-score, replicate 1": 1.11, "robust z-score, replicate 2": 0.793, "robust z-score, replicate 3": 1.33}
{"gene": "OR7G3", "robust z-score, replicate 1": -1.02, "robust z-score, replicate 2": -0.784, "robust z-score, replicate 3": -0.418}
{"gene": "KRT4", "robust z-score, replicate 1": -0.313, "robust z-score, replicate 2": -0.224, "robust z-score, replicate 3": -0.181}
{"gene": "RNF141", "robust z-score, replicate 1": 0.89, "robust z-score, replicate 2": 0.164, "robust z-score, replicate 3": 1.4}
{"gene": "ZNF646", "robust z-score, replicate 1": -1.67, "robust z-score, replicate 2": -1.99, "robust z-score, replicate 3": -1.93}
{"gene": "LOC401062 (retired record)", "robust z-score, replicate 1": -1.22, "robust z-score, replicate 2": -0.948, "robust z-score, replicate 3": -0.983}
{"gene": "LOC441392 (retired record)", "robust z-score, replicate 1": 0.689, "robust z-score, replicate 2": 0.385, "robust z-score, replicate 3": 0.335}
{"gene": "SMIM30", "robust z-score, replicate 1": 1.21, "robust z-score, replicate 2": -0.0998, "robust z-score, replicate 3": 1.28}
{"gene": "LOC440537 (retired record)", "robust z-score, replicate 1": 0.469, "robust z-score, replicate 2": 0.532, "robust z-score, replicate 3": -0.0613}
{"gene": "LOC441868 (retired record)", "robust z-score, replicate 1": -0.798, "robust z-score, replicate 2": -0.651, "robust z-score, replicate 3": -0.804}
{"gene": "UBE2R2", "robust z-score, replicate 1": 0.612, "robust z-score, replicate 2": 1.07, "robust z-score, replicate 3": -0.637}
{"gene": "SPMIP5", "robust z-score, replicate 1": "-1.75 (active)", "robust z-score, replicate 2": -2.79, "robust z-score, replicate 3": -1.95}
{"gene": "ZMYND12", "robust z-score, replicate 1": 1.22, "robust z-score, replicate 2": 1.42, "robust z-score, replicate 3": 0.675}
{"gene": "STAMBPL1", "robust z-score, replicate 1": 0.999, "robust z-score, replicate 2": 0.679, "robust z-score, replicate 3": 1.32}
{"gene": "DNAL4", "robust z-score, replicate 1": 1.09, "robust z-score, replicate 2": 0.762, "robust z-score, replicate 3": 0.527}
{"gene": "LOC389253 (retired record)", "robust z-score, replicate 1": 0.775, "robust z-score, replicate 2": 0.382, "robust z-score, replicate 3": 1.28}
